Results of single-concentration screens

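Phenotypic screen: M. tuberculosis growth, glucose 7H9 medium, 3 days; the read-out is not stated. Compounds at 500 µM. Higher reads as more growth inhibition (inferred: compounds with an IC50 in retests scored well above the rest). Size under these conditions: about 18,000 compounds, about 1,400 of them at 50% or above in at least one test.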

The filed quantity is “Percent Effect” (%). The record does not define 0% and 100%; most values in the screen are far below 50% and negative numbers occur (in some assays of this library far below -100). This is an unselected part of the compounds tested.

| # | Compound | percent effect |
|---|---|---|
| 1 | `COC(=O)CCNC(=O)C1CCCO1` (stereo not given) | 5.497 |
| 2 | `COCc1nn(CCCN2CCCCC2)c(=O)o1` | -4.28 |
| 3 | `CCC(C)c1csc(NC(=O)NCC(=O)NC)n1` (stereo not given) | -3.886 |
| 4 | `NC1CCN(C(=O)c2ccoc2)CC1` | 3.9 |
| 5 | `COC(=O)CSc1nc2ccc(OC)cc2[nH]1` | 4.966 |
| 6 | `OC1(c2c(F)cccc2F)CCNCC1` | 3.223 |
| 7 | `CC(C)(O)c1nnc(N)o1` | 6.048 |
| 8 | `NC(=O)Cc1ccccc1NC(=O)N1CCOCC1` | -9.011 |
| 9 | `O=C(Nc1cccc(F)c1)N1CCCN(CCO)CC1` | 3.402 |
| 10 | `CCN(CCS(C)(=O)=O)CC(O)c1ccc(C)cc1` (stereo not given) | 23.94 |
| 11 | `CNC(=O)c1ccc(CNC(=O)c2ccoc2C)cc1` | 7.31 |
| 12 | `COC(=O)NC(=O)c1ccc(Cl)cc1` | 44.09 |
| 13 | `COC(=O)C[C@H](N)c1ccc(Cl)cc1` | 18.16 |
| 14 | `OCC1CN(C2CCC2)CC12CCN(C1CCC1)CC2` (stereo not given) | 11.95 |
| 15 | `Cc1nonc1C(=O)Nc1cnc(N(C)C)nc1` | 7.663 |
| 16 | `O=C(NCCC1=CCCCC1)NC1CCS(=O)(=O)C1` (stereo not given) | 14.01 |
| 17 | `Cc1scc(C(=O)N2CCCN(C)CC2)c1C` | 28.87 |
| 18 | `c1ccc(Nc2nccs2)nc1` | 8.954 |
| 19 | `Cc1ncsc1CCN(C)C(=O)[C@H]1CC[C@@H](O)CC1` | 3.077 |
| 20 | `CCN1CCCN(C(=O)c2ccccc2COC)CC1` | 5.745 |
| 21 | `CC(N)c1cc(F)ccc1-n1cccn1` (stereo not given) | 41.99 |
| 22 | `CNS(=O)(=O)c1ccc2c(c1)CCN2C(C)=O` | 6.685 |
| 23 | `NCc1cccc(C(=O)N2CCOCC2)c1` | -9.845 |
| 24 | `Cn1nnnc1SCc1cc(Cl)c2c(c1)OCCO2` | 10.01 |
| 25 | `COCCCC1CCNCC1` | 20.5 |
| 26 | `Cc1cnc(CCN)nc1` | 13.38 |
| 27 | `C=C(Br)CNC(=O)c1cccc(CN2CCCC2)c1` | 0.886 |
| 28 | `Cc1ccc(CNC(CN2CCOCC2)C(C)C)nc1` (stereo not given) | 16.25 |
| 29 | `CCN(CC)c1ccc(CN)cc1` | -4.576 |
| 30 | `Cc1ccc2[nH]c(C(=O)N3CCN(C)CC3)cc2c1` | 69.23 |
| 31 | `Cc1nc(NC(=O)CNC(=O)c2ccoc2)sc1C` | -5.086 |
| 32 | `CCCN(CCC(=O)N(C)C)Cc1nccn1C` | 5.126 |
| 33 | `NC(=O)CSc1ccnc(SCC(N)=O)n1` | 3.945 |
| 34 | `CS(=O)(=O)CC(=O)N(Cc1ccccc1)CC1CCC1` | 15.38 |
| 35 | `CC1=C(C(=O)NC(C)c2nc3ccccc3[nH]2)CCO1` (stereo not given) | 23.4 |
| 36 | `O=C(COc1ccc(F)cc1)NC1CC1` | 44.52 |
| 37 | `COc1cccc(C)c1NC(=O)N1CCOCC1CO` (stereo not given) | 6.198 |
| 38 | `COc1cccc(CC(=O)N2CCNC(=O)C2)c1` | 16.17 |
| 39 | `CN1CCN(c2ccc(N)nc2)CC1` | -18.55 |
| 40 | `Cc1nnc2n1CCC(NC(=O)c1cnccn1)CC2` (stereo not given) | -7.248 |
| 41 | `CCNC(C)(C)C(=O)N(C)Cc1ccc(OC)c(F)c1` | -2.571 |
| 42 | `NC(=O)Cn1c(C2CC2)nc2ccccc21` | -5.11 |
| 43 | `CCC(NC(=O)NCCCOC)C(C)C` (stereo not given) | 57.8 |
| 44 | `CCCc1ccc(S(=O)(=O)N2CCNCC2)cc1` | 56.44 |
| 45 | `Cc1cc(C(=O)NC(C(N)=O)c2ccccc2)[nH]n1` (stereo not given) | 5.499 |
| 46 | `c1cncc(CCNCc2cccc3c2OCCO3)c1` | 24.02 |
| 47 | `CN(Cc1ccccc1)C(=O)C1(O)CCCC1` | 43.19 |
| 48 | `O=C(CCn1cncn1)NCC1(c2ccccc2)CC1` | 5.65 |
| 49 | `O=C(NC1CC1)c1cccc2cn[nH]c12` | 18.39 |
| 50 | `Cn1c(=O)oc2ccc(NCc3ccco3)cc21` | -3.101 |
| 51 | `COCC(=O)Nc1cccc(C)c1C(=O)N1CCCC1` | 9.751 |
| 52 | `Cc1c(Br)cccc1C(=O)NCCN1CCNCC1` | 9.152 |
| 53 | `O=C(Cn1ncc2ccccc21)N[C@@H]1CCOC[C@H]1O` | 3.444 |

Repeated from the top, 7 entries:

- COC(=O)CCNC(=O)C1CCCO1 (stereo not given) : 5.497%
- COCc1nn(CCCN2CCCCC2)c(=O)o1 : -4.28%
- CCC(C)c1csc(NC(=O)NCC(=O)NC)n1 (stereo not given) : -3.886%
- NC1CCN(C(=O)c2ccoc2)CC1 : 3.9%
- COC(=O)CSc1nc2ccc(OC)cc2[nH]1 : 4.966%
- OC1(c2c(F)cccc2F)CCNCC1 : 3.223%
- CC(C)(O)c1nnc(N)o1 : 6.048%

The values are deposited in ChEMBL (CHEMBL3988442, “University of Dundee, Small-Polar-MMV Screening Library” (2021)).